{"source": "patent US20230266316A1", "key": {"[1]": {"biological_target": "Human SSTR4 (somatostatin receptor subtype 4) with C-terminal Myc-tag, expressed in CHO cells from pcDNA-SSTR4 (human) (UniProt P31391)", "assay": "proximity ligation assay (Duolink PLA; anti-FLAG and anti-Myc primary antibodies) in co-transfected CHO cells, confocal imaging"}, "[2]": {"biological_target": "Human SSTR4 (somatostatin receptor subtype 4) with C-terminal Myc-tag, expressed in CHO cells from pcDNA-SSTR4 (human) (UniProt P31391)", "assay": "immunostaining (anti-FLAG and anti-Myc), confocal co-localization in co-transfected CHO cells"}}, "note": "These are yes or no findings as the source states them, for the method shown. For some assays here: In cells and extracts the contact can be indirect. Some results given as binding are weak or reduced against the parent protein; the word gives no strength.", "data": [{"substance": "Human SSTR1 (somatostatin receptor subtype 1) with C-terminal Flag-tag, expressed in CHO cells from pcDNA-SSTR1 (from UniProt P30872 1-391)", "values": [{"measurement": "binding", "setting": "[1]", "result": "binds"}, {"measurement": "binding", "setting": "[2]", "result": "binds"}]}]}
